Results are given in words; binding and its absence hold for the method and conditions named. In cells and extracts the contact can be indirect. Some binding calls cover weakened binding; strength is not graded here. Tags and fused reporters may be left off the sequences shown.
Target: GST-tagged p21 (UniProt P38936)
Assay: pull-down; only the target purified

Amino acid sequences for entries named in this document (tags omitted).
UniProt P38936: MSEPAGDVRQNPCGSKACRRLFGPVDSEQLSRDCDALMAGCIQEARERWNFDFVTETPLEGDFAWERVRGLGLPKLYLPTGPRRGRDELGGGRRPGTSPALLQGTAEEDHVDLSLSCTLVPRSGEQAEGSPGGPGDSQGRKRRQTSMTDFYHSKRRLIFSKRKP

B1: HA-tagged HO-1 (protein, UniProt P09601 1-288)
chain: MERPQPDSMPQDLSEALKEATKEVHTQAENAEFMRNFQKGQVTRDGFKLVMASLYHIYVALEEEIERNKESPVFAPVYFPEELHRKAALEQDLAFWYGPRWQEVIPYTPAMQRYVKRLHEVGRTEPELLVAHAYTRYLGDLSGGQVLKKIAQKALDLPSSGEGLAFFTFPNIASATKFKQLYRSRMNSLEMTPAVRQRVIEEAKTAFLLNIQLFEELQELLTHDTKDQSPSRAPGLRQRASNKVQDSAPVETPRGKPPLNTRSQAPLLRWVLTLSFLVATVAVGLYAM
Q: With B1 as the binder, how does the binding read?
A: binds
